Test results reported in the supplement of paper PMC7666118.
This is one part of the list.

The chains behind the UniProt entries cited, without tags or fusion partners. Where a name states a change or a piece, a line headed by the entry shows the natural chain unless it says otherwise.
UniProt Q12907: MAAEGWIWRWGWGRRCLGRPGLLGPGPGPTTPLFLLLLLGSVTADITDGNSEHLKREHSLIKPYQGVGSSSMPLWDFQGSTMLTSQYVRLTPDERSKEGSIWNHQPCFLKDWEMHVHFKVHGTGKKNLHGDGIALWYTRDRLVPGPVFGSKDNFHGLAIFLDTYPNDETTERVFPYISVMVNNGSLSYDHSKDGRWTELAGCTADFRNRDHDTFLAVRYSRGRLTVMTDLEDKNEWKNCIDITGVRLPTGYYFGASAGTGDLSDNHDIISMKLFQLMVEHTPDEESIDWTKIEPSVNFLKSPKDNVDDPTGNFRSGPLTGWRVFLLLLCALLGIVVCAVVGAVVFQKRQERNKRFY
UniProt P02545: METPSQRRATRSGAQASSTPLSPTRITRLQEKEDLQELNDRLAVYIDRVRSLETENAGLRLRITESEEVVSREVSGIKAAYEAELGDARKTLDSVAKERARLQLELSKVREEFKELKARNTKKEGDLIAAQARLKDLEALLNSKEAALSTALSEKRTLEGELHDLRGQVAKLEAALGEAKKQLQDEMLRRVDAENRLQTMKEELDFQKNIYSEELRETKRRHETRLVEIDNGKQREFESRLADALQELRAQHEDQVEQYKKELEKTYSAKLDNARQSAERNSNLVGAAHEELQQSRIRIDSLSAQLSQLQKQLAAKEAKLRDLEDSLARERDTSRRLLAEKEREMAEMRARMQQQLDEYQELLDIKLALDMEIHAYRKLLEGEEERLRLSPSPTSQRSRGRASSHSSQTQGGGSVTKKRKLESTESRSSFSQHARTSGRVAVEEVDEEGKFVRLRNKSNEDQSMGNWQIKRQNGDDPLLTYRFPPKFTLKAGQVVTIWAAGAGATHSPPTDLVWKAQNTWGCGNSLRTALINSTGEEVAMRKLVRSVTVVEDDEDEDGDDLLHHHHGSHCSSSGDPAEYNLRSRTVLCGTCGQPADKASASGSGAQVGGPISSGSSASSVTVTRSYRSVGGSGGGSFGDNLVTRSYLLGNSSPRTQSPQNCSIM
UniProt P48449: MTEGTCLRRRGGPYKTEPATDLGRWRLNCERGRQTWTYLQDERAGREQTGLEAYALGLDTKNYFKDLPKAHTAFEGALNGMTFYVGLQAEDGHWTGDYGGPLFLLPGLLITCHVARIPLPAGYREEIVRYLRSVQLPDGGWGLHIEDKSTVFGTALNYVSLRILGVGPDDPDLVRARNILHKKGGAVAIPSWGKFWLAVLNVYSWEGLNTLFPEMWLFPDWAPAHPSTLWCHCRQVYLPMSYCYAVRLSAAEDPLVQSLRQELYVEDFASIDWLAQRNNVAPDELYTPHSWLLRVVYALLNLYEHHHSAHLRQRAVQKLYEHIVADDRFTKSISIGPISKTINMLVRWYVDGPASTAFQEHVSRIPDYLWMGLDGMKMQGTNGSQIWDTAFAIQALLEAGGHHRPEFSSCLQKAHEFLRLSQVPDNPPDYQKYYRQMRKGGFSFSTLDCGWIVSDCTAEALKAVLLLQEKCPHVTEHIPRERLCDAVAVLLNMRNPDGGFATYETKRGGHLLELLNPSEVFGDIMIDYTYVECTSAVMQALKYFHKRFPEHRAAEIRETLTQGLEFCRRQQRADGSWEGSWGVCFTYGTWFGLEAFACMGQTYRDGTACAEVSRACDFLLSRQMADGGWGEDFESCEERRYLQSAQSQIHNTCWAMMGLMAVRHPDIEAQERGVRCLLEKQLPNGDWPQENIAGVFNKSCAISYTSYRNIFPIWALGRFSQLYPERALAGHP
UniProt Q9NYJ8: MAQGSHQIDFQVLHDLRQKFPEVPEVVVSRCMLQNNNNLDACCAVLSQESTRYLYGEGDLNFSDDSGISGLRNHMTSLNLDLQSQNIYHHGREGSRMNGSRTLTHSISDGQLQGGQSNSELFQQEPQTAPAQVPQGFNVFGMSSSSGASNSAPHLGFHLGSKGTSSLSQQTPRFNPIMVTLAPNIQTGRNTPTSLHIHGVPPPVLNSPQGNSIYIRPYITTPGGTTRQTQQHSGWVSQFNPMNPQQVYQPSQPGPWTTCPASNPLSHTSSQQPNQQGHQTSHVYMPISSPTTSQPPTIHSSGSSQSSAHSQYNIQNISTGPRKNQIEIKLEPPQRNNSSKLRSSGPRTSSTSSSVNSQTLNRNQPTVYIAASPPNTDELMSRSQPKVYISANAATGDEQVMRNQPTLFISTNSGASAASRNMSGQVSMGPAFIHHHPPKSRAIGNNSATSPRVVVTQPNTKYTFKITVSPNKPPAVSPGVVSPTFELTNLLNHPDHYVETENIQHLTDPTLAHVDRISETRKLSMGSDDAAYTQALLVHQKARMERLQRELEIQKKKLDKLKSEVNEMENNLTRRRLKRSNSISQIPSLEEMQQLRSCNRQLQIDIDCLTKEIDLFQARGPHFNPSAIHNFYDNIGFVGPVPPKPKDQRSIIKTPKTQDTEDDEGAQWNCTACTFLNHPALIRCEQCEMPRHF
UniProt Q96BZ8: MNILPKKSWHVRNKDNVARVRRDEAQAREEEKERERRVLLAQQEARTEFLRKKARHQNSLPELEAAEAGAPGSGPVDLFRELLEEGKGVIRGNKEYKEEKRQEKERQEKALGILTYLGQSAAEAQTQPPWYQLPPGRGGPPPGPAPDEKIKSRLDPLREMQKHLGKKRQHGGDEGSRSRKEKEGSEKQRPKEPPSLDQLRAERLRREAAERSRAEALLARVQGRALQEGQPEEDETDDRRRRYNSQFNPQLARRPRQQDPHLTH
UniProt Q9P2J5: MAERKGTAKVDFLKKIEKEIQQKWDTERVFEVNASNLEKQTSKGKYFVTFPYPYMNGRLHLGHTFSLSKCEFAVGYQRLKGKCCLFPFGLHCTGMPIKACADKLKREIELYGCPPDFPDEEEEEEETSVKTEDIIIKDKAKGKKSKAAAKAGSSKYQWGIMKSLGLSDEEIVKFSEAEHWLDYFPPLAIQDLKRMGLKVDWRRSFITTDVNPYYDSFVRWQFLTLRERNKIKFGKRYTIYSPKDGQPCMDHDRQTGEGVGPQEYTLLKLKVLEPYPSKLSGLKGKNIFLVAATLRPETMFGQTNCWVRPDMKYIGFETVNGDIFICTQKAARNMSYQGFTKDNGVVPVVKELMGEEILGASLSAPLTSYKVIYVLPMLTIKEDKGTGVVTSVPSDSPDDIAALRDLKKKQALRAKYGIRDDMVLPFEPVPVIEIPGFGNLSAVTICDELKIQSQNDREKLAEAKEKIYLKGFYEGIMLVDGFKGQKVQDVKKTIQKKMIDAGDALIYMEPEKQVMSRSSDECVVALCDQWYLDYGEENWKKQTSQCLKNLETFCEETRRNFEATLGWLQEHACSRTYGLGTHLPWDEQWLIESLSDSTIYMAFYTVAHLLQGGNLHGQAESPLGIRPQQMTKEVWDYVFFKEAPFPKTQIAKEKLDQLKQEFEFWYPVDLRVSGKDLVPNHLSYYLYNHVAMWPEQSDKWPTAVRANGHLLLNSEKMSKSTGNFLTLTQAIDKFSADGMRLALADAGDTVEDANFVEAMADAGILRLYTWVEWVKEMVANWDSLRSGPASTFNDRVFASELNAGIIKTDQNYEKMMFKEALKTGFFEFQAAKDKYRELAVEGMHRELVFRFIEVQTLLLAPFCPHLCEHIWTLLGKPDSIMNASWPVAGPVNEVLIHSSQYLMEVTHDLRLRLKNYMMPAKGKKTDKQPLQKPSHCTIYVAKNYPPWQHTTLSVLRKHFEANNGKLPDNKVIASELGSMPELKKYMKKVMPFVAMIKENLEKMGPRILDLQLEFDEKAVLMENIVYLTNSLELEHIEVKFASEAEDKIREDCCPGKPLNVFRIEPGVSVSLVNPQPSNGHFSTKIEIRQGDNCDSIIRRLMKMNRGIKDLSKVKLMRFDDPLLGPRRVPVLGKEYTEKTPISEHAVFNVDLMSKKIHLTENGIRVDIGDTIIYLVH
UniProt O75608: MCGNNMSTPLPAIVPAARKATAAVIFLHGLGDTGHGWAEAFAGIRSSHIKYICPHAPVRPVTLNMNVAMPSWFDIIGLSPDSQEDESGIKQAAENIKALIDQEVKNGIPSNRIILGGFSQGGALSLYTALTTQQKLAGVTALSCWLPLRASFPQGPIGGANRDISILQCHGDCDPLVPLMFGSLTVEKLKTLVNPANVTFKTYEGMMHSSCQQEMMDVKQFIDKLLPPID
UniProt Q8IVL6: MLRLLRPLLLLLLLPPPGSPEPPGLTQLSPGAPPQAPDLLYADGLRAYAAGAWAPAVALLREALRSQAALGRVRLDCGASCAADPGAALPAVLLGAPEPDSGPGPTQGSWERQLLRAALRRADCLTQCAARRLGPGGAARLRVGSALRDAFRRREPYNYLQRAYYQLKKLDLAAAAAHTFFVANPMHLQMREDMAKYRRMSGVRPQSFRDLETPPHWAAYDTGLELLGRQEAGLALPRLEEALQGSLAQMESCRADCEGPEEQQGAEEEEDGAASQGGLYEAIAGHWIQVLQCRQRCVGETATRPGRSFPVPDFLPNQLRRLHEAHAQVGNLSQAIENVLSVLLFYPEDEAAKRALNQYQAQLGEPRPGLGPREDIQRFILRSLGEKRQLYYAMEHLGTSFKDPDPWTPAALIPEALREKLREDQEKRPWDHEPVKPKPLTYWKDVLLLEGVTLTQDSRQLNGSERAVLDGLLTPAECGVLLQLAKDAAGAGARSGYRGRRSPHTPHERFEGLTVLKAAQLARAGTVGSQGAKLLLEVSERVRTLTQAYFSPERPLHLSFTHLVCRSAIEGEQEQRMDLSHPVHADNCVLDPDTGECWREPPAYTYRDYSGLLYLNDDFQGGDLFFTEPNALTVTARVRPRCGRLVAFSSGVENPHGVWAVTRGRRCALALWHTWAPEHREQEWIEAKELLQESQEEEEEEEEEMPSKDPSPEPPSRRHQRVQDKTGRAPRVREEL
UniProt Q96N66: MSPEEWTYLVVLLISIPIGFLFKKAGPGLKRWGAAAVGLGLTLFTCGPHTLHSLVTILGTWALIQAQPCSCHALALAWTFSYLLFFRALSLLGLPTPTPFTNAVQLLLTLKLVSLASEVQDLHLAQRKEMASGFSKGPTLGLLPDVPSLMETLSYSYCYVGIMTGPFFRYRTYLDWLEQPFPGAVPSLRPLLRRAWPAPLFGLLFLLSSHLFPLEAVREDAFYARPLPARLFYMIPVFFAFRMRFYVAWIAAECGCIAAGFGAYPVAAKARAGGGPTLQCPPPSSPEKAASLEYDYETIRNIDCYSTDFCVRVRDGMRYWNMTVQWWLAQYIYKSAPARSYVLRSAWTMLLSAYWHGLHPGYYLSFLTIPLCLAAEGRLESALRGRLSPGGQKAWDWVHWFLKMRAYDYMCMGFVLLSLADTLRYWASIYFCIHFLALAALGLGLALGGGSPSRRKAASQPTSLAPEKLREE
UniProt Q8NC56: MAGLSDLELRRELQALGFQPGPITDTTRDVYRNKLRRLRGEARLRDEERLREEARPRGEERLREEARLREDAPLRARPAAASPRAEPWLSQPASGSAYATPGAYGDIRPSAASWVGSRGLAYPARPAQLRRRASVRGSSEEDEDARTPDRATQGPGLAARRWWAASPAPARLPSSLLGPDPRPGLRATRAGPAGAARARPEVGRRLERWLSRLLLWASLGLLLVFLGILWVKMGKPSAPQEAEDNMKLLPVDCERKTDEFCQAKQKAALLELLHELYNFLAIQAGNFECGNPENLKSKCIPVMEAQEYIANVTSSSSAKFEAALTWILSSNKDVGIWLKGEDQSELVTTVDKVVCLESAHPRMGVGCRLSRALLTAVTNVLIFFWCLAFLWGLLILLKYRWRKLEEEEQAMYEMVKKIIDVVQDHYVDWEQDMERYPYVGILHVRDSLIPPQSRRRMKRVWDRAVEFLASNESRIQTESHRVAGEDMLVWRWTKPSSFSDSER
UniProt Q9NU23: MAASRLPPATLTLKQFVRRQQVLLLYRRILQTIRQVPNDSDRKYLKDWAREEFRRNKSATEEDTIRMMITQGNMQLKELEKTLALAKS
UniProt Q9NUP9: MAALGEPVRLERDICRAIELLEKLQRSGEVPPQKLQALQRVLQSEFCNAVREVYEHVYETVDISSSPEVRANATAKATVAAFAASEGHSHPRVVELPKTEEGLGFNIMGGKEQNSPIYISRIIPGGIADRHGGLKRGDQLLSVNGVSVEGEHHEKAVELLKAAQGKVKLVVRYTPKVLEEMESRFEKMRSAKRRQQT

compound: COc1ccc(Cn2ccc3cc(C)c(C(=O)NO)cc32)cc1; experiment: dose-dependent thermal stabilisation call (2D-TPP, DLPTP, 10% FDR) (binary (1 = stabilised)); higher = stabilised by the compound; settings: system: HL-60 intact cells; concentration range 0.04-10 µM
Protocol: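 2D thermal proteome profiling in intact HL-60 cells treated with BRD-3811 (0, 0.04, 0.29, 2, 10 uM) for 90 min at 37 C, then heated 3 min at one of 12 temperatures (42-63.9 C). Soluble protein was quantified by TMT10 MS. The value is the DLPTP call of the paper: dose-dependent thermal stabilisation over all temperatures at 10% FDR (F-test of a dose-response against a flat model); one experiment, one call per tested protein.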

Target	dose-dependent thermal stabilisation call
LZTR1 (UniProt Q8N653)	inactive: 0
LAS1L (UniProt Q9Y4W2)	inactive: 0
LMAN2 (UniProt Q12907)	inactive: 0
MAPRE2 (UniProt Q15555)	inactive: 0
LMNA (UniProt P02545)	inactive: 0
LLGL1 (UniProt Q15334)	inactive: 0
LTV1 (UniProt Q96GA3)	inactive: 0
LSS (UniProt P48449)	inactive: 0
MAP3K7IP2 (UniProt Q9NYJ8)	inactive: 0
LENG1 (UniProt Q96BZ8)	inactive: 0
LARS (UniProt Q9P2J5)	inactive: 0
LOC442497	inactive: 0
LACTB (UniProt P83111)	inactive: 0
LYPLA1 (UniProt O75608)	inactive: 0
LEPREL2 (UniProt Q8IVL6)	inactive: 0
LOC100132129	inactive: 0
MBOAT7 (UniProt Q96N66)	inactive: 0
MDH1 (UniProt P40925)	active: 1
MCM6 (UniProt Q14566)	inactive: 0
MAPK9 (UniProt P45984)	inactive: 0
MAP2K2 (UniProt P36507)	inactive: 0
LRRC40 (UniProt Q9H9A6)	inactive: 0
LYAR (UniProt Q9NX58)	inactive: 0
LCP1 (UniProt P13796)	inactive: 0
LEMD2 (UniProt Q8NC56)	inactive: 0
LYRM2 (UniProt Q9NU23)	inactive: 0
LIN7C (UniProt Q9NUP9)	inactive: 0
MAP4 (UniProt P27816)	inactive: 0

Retrieved one by one from above:
Target	dose-dependent thermal stabilisation call
LIN7C (UniProt Q9NUP9)	inactive: 0
LSS (UniProt P48449)	inactive: 0
